According to US11020462B2, “Methods for treatment of diseases” (SERPIN PHARMA, LLC, priority 2015, dated 2021):
At least one peptide structure holds a part that was inferred or is arguable (an end, a ring closure or a residue).

The chains behind the UniProt entries cited, without tags or fusion partners. A line that says so, or that is headed by a name, gives the form on record, which may keep a tag or linker. Residues count along the entry.
UniProt Q9QUN7, 25-784: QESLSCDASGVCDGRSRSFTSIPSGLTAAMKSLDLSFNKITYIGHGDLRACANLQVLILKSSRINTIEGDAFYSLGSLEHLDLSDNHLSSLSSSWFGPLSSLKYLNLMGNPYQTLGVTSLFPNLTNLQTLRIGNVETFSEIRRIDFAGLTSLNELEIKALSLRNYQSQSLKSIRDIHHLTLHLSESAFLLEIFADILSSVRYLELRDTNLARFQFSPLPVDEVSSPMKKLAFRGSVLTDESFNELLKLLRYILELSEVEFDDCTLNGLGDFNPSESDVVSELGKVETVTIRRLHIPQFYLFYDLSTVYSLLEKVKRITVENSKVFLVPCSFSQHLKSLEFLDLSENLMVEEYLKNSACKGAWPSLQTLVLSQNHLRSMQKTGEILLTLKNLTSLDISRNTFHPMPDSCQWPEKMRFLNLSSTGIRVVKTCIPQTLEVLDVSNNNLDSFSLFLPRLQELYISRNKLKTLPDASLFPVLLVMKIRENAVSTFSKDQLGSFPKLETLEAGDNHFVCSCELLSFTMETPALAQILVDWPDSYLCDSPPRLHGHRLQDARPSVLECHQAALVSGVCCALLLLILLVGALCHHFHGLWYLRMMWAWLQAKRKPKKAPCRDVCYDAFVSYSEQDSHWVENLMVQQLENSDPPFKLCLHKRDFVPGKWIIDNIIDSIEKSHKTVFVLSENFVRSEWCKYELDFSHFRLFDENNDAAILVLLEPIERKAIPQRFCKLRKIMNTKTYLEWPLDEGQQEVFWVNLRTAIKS
UniProt Q07954, with tags, fused parts or gaps limits assumed, species assumed: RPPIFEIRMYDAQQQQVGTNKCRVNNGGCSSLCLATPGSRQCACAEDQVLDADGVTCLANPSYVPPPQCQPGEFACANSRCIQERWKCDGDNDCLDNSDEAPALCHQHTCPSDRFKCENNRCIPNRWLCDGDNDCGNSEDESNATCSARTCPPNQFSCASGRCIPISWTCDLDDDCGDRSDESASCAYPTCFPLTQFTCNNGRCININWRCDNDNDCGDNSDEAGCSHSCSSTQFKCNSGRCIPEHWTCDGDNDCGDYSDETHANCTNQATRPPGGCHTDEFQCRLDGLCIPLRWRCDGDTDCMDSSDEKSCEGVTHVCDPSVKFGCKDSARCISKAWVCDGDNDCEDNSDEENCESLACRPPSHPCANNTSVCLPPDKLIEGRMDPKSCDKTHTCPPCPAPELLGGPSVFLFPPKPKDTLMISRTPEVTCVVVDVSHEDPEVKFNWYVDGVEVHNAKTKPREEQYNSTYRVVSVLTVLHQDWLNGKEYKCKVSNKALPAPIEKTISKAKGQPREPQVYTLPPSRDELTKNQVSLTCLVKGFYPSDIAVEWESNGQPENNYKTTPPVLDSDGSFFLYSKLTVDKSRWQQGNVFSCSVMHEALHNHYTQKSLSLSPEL

Legend:
[1] = tested on: experimental acute myocardial infarction (AMI) in the mouse; assay: experimental acute myocardial infarction in the mouse: coronary artery ligation 30 minutes, then reperfusion; type: in vivo
[2] = tested on: 111 human receptors; assay: human receptor panning, GenSEP Explorer panel of 111 in vitro assay targets
From the text: In addition, we also performed a profile using human receptor panning. The GenSEP Explorer panel contains 111 in vitro assay targets carefully selected to assess drug/chemical biological activities. Assay categories include GPCRs, Voltage-Gated Ion Channels, Ligand-Gated Ion Channels, Neurotransmitter transporters, Nuclear Receptors and Steroids as well as a diverse set of biochemical targets including phosphodiesterases, kinases and other relevant enzymes.

[3] = tested on: NF-kB signaling in THP1-XBlue-MD2-CD14 cells; assay: NF-kB inducible SEAP reporter assay in THP1-XBlue-MD2-CD14 cells; type: cell-based
[4] = tested on: LRP1 on Raw264.7 murine macrophages; assay: LRP1 expression on Raw264.7 murine macrophages by flow cytometry; type: cell-based; details: 50, 100 or 200 ug/ml for 3 hrs, FIG. 10
[5] = biological target: T1, toll like receptor-2 (Mus musculus, UniProt Q9QUN7); assay: TLR-2 assay with engineered TLR-2 indicator cell line (HEK-BLUE mTLR2); type: cell-based
T1 construct: host or cells: HEK-BLUE mTLR2 (engineered HEK reporter cells)

[6] = compared to intraperitoneal SP16 and dexamethasone; cited from earlier work
[7] = biological target: T2, recombinant LRP1 protein (Homo sapiens, UniProt Q07954); assay: in vitro binding of biotin-peptide to recombinant LRP1 (streptavidin bead pull-down, western blot)
T2 construct: purchased R&D Systems, Minneapolis, Minn
Method: An in vitro assay was performed to examine SP163M binding to LRP1. To perform the assay, recombinant LRP1 protein (1 μg/ml) (R&D Systems, Minneapolis, Minn.) was incubated on ice in the presence of biotin-SP163M (1-5 μg/ml) at 4° C. for 1 hour. This mixture was then incubated with 1 mg/ml M280 Streptavidin Dynabeads (Invitrogen, Carlsbad, Calif.) for 1.5 hours at 4° C. Dynabeads were washed in PBS+0.1% Tween20 and boiled in SDS loading buffer for 5 minutes. The supernatants were separated on NuPAGE 4-12% Bis-Tris gels (Invitrogen) and transferred to nitrocellulose membranes. The membranes were probed with anti-LRP1 (LRP-1 Cluster II Affinity Purified Polyclonal Ab, R&D, Minneapolis, Minn.) and incubated overnight at 4° C. The membranes were then washed 3 times with TBS-T and incubated with secondary HRP-coupled anti-goat diluted 1:10,000 in 5% milk TBS-T. The western blots were visualized by chemiluminescence using SuperSignal West Femto Maximum Sensitivity Substrate kit (ThermoScientific) and a Bio Rad Molecular Imager ChemiDoc XRS system (Bio-Rad, Hercules, Calif.).

What does the source list for `CC[C@H](C)[C@H](NC(=O)[C@H](CCSC)NC(=O)[C@H](CC(C)C)NC(=O)[C@H](Cc1ccccc1)NC(=O)[C@@H](NC(=O)[C@H](Cc1ccccc1)NC(=O)[C@@H]1CCCN1C(=O)[C@H](CCCCN)NC(=O)[C@H](CC(N)=O)NC(=O)[C@H](Cc1ccccc1)NC(=O)[C@H](CCCCN)NC(=O)[C@@H](N)C(C)C)C(C)C)C(=O)N[C@@H](CCC(=O)O)C(=O)N[C@@H](CCC(N)=O)C(=O)N[C@@H](CC(N)=O)C(=O)N[C@H](C(=O)N[C@@H](CCCCN)C(=O)O)[C@@H](C)O` [SP16]?
reduction of myocardial infarct size (percentage of infarcted left ventricle) ([1]; 100 μg at time of reperfusion, vs NaCl 0.9%, ICR mice): > 50%; left ventricular systolic function (LV fractional shortening, echocardiography) ([1]; 100 μg/mouse i.p. at reperfusion, FIG. 4C): preservation of the left ventricular systolic function; infarct size in the AMI model (general statement) ([1]; mouse AMI model, dose not given at the place): reduce infarct size; Percent inhibition ([2]; Brain/gut peptides, 15 receptors tested): Insignificant; Percent inhibition ([2]; Cell-Based, Functional, 1 receptor tested): Insignificant; Percent inhibition ([2]; Enzymes, 20 receptors tested): Insignificant; Percent inhibition ([2]; Enzymes, Kinases, 11 receptors tested): Insignificant; Percent inhibition ([2]; Growth factors & hormones, 2 receptors tested): Insignificant; Percent inhibition ([2]; Ion Channels, 8 receptors tested): Insignificant; Percent inhibition ([2]; Neurotransmitter Related, 47 receptors tested): Insignificant; Percent inhibition ([2]; Second Messengers, 3 receptors tested): Insignificant; Percent inhibition ([2]; Steroids, 4 receptors tested): Insignificant; LRP1 agonism [3]: LRP1 agonist; expression of LRP1 (mean fluorescent intensity), dose-dependent [4]: increases expression of LRP1; toll like receptor-2 agonism [5]: toll like receptor-2 agonists; efficacy of oral administration [6]: efficacious; binding to LRP1 (statement without method) [7]: bind LRP1
